Reference: patent US20240287138A1 (Merck Sharp & Dohme LLC, priority 2023, published 2024)

Test: general procedure: Fmoc solid-phase peptide synthesis; Rink Amide MBHA LL resin (100-200 mesh, 0.4 mmol/g loading, Novabiochem); DIC/Oxyma Pure; HATU/NMM
Conditions: whole synthesis, 215 nm, scale of the general procedure 50 μmol (Liberty Blue), 100 μmol (Symphony X)

For “PEPTIDE1{[XClAc].[XNle].[X4Pal].[XPip].W.[XNxG42].N.[X4Pal].[XTrp7Cl].[XaMeS].[XPhe4COOH].Y.[XSar].[XSbMeW7OMe].C.[am]}$PEPTIDE1,PEPTIDE1,1:R3-15:R3$$$V2.0”, the “final purity (method not given)” value was 93.5%.

HELM strings list residues between dots; [ac] is acetyl, [am] amide, other brackets name non-standard units.
